Publication PMC6928678, “Simplified Head-to-Tail Cyclic Polypeptides as Biomaterial-Associated Antimicrobials with Endotoxin Neutralizing and Anti-Inflammatory Capabilities” (International Journal of Molecular Sciences, 2019)
Where a SMILES comes first, the peptide text is derived from it. Where no end group is shown, it is not given here. [ ]: non-standard residue; d: D form. Orn = NCCC[C@H](N)C(=O)O

system: bacteria versus human red blood cell; settings: 256 μM used for MHC5 when no hemolysis at 128 μM
Experimental: To investigate the cell selectivity of novel antimicrobials, the total selectivity index (TSI) was calculated as the ratio of the minimal hemolysis concentration (MHC) to the geometric mean (GM) of the MIC values (Table 2).

Molecule | nSI (–), selectivity index MHC5/GM (−) | pSI (+), selectivity index MHC5/GM(+) | tSI, total selectivity index MHC5/TGM
CC(C)C[C@@H]1NC(=O)[C@H](CCCN)NC(=O)[C@H](C(C)C)NC(=O)[C@@H]2CCCN2C(=O)[C@@H](Cc2ccccc2)NC(=O)[C@H](CC(C)C)NC(=O)[C@H](CCCN)NC(=O)[C@H](C(C)C)NC(=O)[C@@H]2CCCN2C(=O)[C@@H](Cc2ccccc2)NC1=O [GS, gramicidin S, reference compound] (cyclo(V[Orn]L[dF]PV[Orn]L[dF]P)) | 1.3 | 4.0 | 2.2
CC[C@H](C)[C@H](N)C(=O)N[C@@H](CCCNC(=N)N)C(=O)N1CCC[C@@H]1C(=O)N[C@H](C(=O)N[C@@H](CCCNC(=N)N)C(=O)N1CCC[C@@H]1C(=O)O)[C@@H](C)CC [DIR1] (H-IR[dP]IR[dP]-OH) | 1.0 | 1.0 | 1.0
IRIRPIRIRP [IR2] | 1.0 | 1.0 | 1.0
CC[C@H](C)[C@@H]1NC(=O)[C@@H]2CCCN2C(=O)[C@H](CCCNC(=N)N)NC(=O)[C@H]([C@@H](C)CC)NC(=O)[C@@H]2CCCN2C(=O)[C@H](CCCNC(=N)N)NC1=O [OIR1] (cyclo(IRPIRP)) | 1.0 | 1.0 | 1.0
IRPIRP [IR1] | 1.0 | 1.0 | 1.0
IRIRIRPIRIRIRP [IR3] | 21.2 | 2.8 | 11.3
Colistin Sulfate [CS, reference compound] | 320.0 | 3.4 | 43.4
CC[C@H](C)[C@@H]1NC(=O)[C@H](CCCNC(=N)N)NC(=O)[C@H]([C@@H](C)CC)NC(=O)[C@@H]2CCCN2C(=O)[C@H](CCCNC(=N)N)NC(=O)[C@H]([C@@H](C)CC)NC(=O)[C@H](CCCNC(=N)N)NC(=O)[C@H]([C@@H](C)CC)NC(=O)[C@H](CCCNC(=N)N)NC(=O)[C@H]([C@@H](C)CC)NC(=O)[C@@H]2CCCN2C(=O)[C@H](CCCNC(=N)N)NC(=O)[C@H]([C@@H](C)CC)NC(=O)[C@H](CCCNC(=N)N)NC1=O [OIR3] (cyclo(IRIRIRPIRIRIRP)) | 73.1 | 64.0 | 69.2
CC[C@H](C)[C@H](N)C(=O)N[C@@H](CCCNC(=N)N)C(=O)N[C@H](C(=O)N[C@@H](CCCNC(=N)N)C(=O)N1CCC[C@@H]1C(=O)N[C@H](C(=O)N[C@@H](CCCNC(=N)N)C(=O)N[C@H](C(=O)N[C@@H](CCCNC(=N)N)C(=O)N1CCC[C@@H]1C(=O)O)[C@@H](C)CC)[C@@H](C)CC)[C@@H](C)CC [DIR2] (H-IRIR[dP]IRIR[dP]-OH) | 1.3 | 1.0 | 1.2
CC[C@H](C)[C@@H]1NC(=O)[C@H](CCCNC(=N)N)NC(=O)[C@H]([C@@H](C)CC)NC(=O)[C@@H]2CCCN2C(=O)[C@H](CCCNC(=N)N)NC(=O)[C@H]([C@@H](C)CC)NC(=O)[C@H](CCCNC(=N)N)NC(=O)[C@H]([C@@H](C)CC)NC(=O)[C@@H]2CCCN2C(=O)[C@H](CCCNC(=N)N)NC1=O [OIR2] (cyclo(IRIRPIRIRP)) | 1.7 | 1.0 | 1.4
